# From patent US20230160878A1, “METHOD OF SCREENING A THERAPY FOR INDUCTION OF FERROPTOSIS” (priority 2020, published 2023)
# At least one compound was matched to its structure with a doubt left.
# Tested on: breast cancer cell line (MCF7)
# Test: nascent RNA sequencing (SNAP-seq) after estrogen treatment
# Assay type: cell-based
# Conditions: MCF7, 100 nM estradiol, 15 minutes, treated versus untreated
smiles,measurement,value
C[C@]12CC[C@@H]3c4ccc(O)cc4CC[C@H]3[C@@H]1CC[C@@H]2O [estradiol],level of FOS gene expressions (nascent RNA sequence reads at the FOS locus),quantitative increase
